The supplement of paper PMC10849652
The list shows a part of the results.

Chains of the proteins cited; added tags and fusions are not shown. Lines headed by an entry give the natural chain unless they say otherwise; changes in a name come on top.
UniProt P32856: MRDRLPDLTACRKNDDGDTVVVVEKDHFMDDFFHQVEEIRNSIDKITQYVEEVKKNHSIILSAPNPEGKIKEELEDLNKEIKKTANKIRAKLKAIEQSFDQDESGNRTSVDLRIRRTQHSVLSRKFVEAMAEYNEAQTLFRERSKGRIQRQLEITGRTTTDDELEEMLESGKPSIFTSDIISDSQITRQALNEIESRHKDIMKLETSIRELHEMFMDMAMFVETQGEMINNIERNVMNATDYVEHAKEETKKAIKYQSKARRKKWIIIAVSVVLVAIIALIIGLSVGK

What was measured:
Assay in all cases: log2 fold change, soluble protein after heating vs DMSO (PISA); higher = thermal stabilisation; K562 cells, 10 uM, 30 min; active = over 0.2 and 3.5 SD of the protein, either way, in both replicates (recomputed)
alvocidib = compound: CN1CC[C@H](c2c(O)cc(O)c3c(=O)cc(-c4ccccc4Cl)oc23)[C@H](O)C1 [alvocidib]
Procedure, shortened: (§1)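 K562 cells at 2×10^6 cells/mL were treated for 30 min with 10 μM compound, and aliquots were heated for 3 min over 48°C-58°C before pooling. Extraction used PBS with 0.5% NP-40 at 4°C, and soluble protein was the supernatant after 21,000xg for 90 min, measured by TMTpro 16plex LC-MS/MS with channel sums equalised. Thermal stability values, relative to control samples and from duplicates, are log2 fold changes.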

Tubastatin A = compound: CN1CCc2c(c3ccccc3n2Cc2ccc(C(=O)NO)cc2)C1 [Tubastatin A]
Procedure, shortened: as §1

[1] = compound: CNC(=O)C1=CC=CC=C1NC2=NC(=NC=C2Cl)NC3=C(C=C(C=C3)N4CCOCC4)OC
Procedure, shortened: as §1

defactinib = compound: CNC(=O)c1ccc(Nc2ncc(C(F)(F)F)c(NCc3nccnc3N(C)S(C)(=O)=O)n2)cc1 [defactinib]
Procedure, shortened: as §1

rucaparib = compound: CNCc1ccc(-c2[nH]c3cc(F)cc4c3c2CCNC4=O)cc1 [rucaparib]
Procedure, shortened: as §1

[2] = compound: CNc1nc(-c2ccc3c(N)n[nH]c3c2)cc(N2C[C@@H](C(=O)NC3CCCCC3)CC[C@H]2C)n1
Procedure, shortened: as §1

encorafenib = compound: COC(=O)N[C@@H](C)CNc1nccc(-c2cn(C(C)C)nc2-c2cc(Cl)cc(NS(C)(=O)=O)c2F)n1 [encorafenib]
Procedure, shortened: as §1

[3] = compound: COC(=O)[C@H](CCSC)NC(=O)C1=C(C=C(C=C1)NC[C@H](CS)N)C2=CC=CC=C2
Procedure, shortened: as §1

[4] = compound: COC1=CC=C(C=C1)CN2C=CC3=C2C=C(C=C3)C(=O)NO
Procedure, shortened: as §1

filanesib = compound: CON(C)C(=O)N1N=C(c2cc(F)ccc2F)S[C@@]1(CCCN)c1ccccc1 [filanesib]
Procedure, shortened: as §1

zotarolimus = compound: CO[C@H]1C[C@@H]2CC[C@@H](C)[C@@](O)(O2)C(=O)C(=O)N2CCCC[C@H]2C(=O)O[C@H]([C@H](C)C[C@@H]2CC[C@H](n3cnnn3)[C@H](OC)C2)CC(=O)[C@H](C)/C=C(\C)[C@@H](O)[C@@H](OC)C(=O)[C@H](C)C[C@H](C)/C=C/C=C/C=C/1C [zotarolimus]
Procedure, shortened: as §1

idasanutlin = compound: COc1cc(C(=O)O)ccc1NC(=O)[C@@H]1N[C@@H](CC(C)(C)C)[C@](C#N)(c2ccc(Cl)cc2F)[C@H]1c1cccc(Cl)c1F [idasanutlin]
Procedure, shortened: as §1

alisertib = compound: COc1cc(Nc2ncc3c(n2)-c2ccc(Cl)cc2C(c2c(F)cccc2OC)=NC3)ccc1C(=O)O [alisertib]
Procedure, shortened: as §1

[5] = compound: COc1cc2nc(-c3cc(F)ccc3O)nc(N[C@@H]3CNC[C@H]3C(C)(C)O)c2cc1OC
Procedure, shortened: as §1

gefitinib = compound: COc1cc2ncnc(Nc3ccc(F)c(Cl)c3)c2cc1OCCCN1CCOCC1 [gefitinib]
Procedure, shortened: as §1

[6] = compound: COc1cccc2cc(-c3nc([C@H]4CC[C@H](C(=O)O)CC4)n4ncnc(N)c34)[nH]c12
Procedure, shortened: as §1

lapatinib = compound: CS(=O)(=O)CCNCc1ccc(-c2ccc3ncnc(Nc4ccc(OCc5cccc(F)c5)c(Cl)c4)c3c2)o1 [lapatinib]
Procedure, shortened: as §1

pictilisib = compound: CS(=O)(=O)N1CCN(Cc2cc3nc(-c4cccc5[nH]ncc45)nc(N4CCOCC4)c3s2)CC1 [pictilisib]
Procedure, shortened: as §1

[7] = compound: CS(=O)(=O)c1ccc(-c2cnc(N)c(C(=O)Nc3ccccc3)n2)cc1
Procedure, shortened: as §1

crizotinib = compound: C[C@@H](Oc1cc(-c2cnn(C3CCNCC3)c2)cnc1N)c1c(Cl)ccc(F)c1Cl [crizotinib]
Procedure, shortened: as §1

[8] = compound: C[C@@H]1COCCN1C2=NC(=NC(=C2)C3(CC3)S(=O)(=O)C)C4=C5C=CNC5=CC=C4
Procedure, shortened: as §1

[9] = compound: C[C@H](C1=CC=C(C=C1)C(=O)NC2=C3C=CNC3=NC=C2)N
Procedure, shortened: as §1

duvelisib = compound: C[C@H](Nc1ncnc2nc[nH]c12)c1cc2cccc(Cl)c2c(=O)n1-c1ccccc1 [duvelisib]
Procedure, shortened: as §1

gandotinib = compound: Cc1cc(Nc2cc(CN3CCOCC3)c3nc(C)c(Cc4ccc(Cl)cc4F)n3n2)n[nH]1 [gandotinib]
Procedure, shortened: as §1

tozasertib = compound: Cc1cc(Nc2cc(N3CCN(C)CC3)nc(Sc3ccc(NC(=O)C4CC4)cc3)n2)n[nH]1 [tozasertib]
Procedure, shortened: as §1

[10] = compound: Cc1cc(SCc2sc(-c3ccc(C(F)(F)F)cc3)nc2C)ccc1OCC(=O)O
Procedure, shortened: as §1

doramapimod = compound: Cc1ccc(-n2nc(C(C)(C)C)cc2NC(=O)Nc2ccc(OCCN3CCOCC3)c3ccccc23)cc1 [doramapimod]
Procedure, shortened: as §1

ispinesib = compound: Cc1ccc(C(=O)N(CCCN)[C@@H](c2nc3cc(Cl)ccc3c(=O)n2Cc2ccccc2)C(C)C)cc1 [ispinesib]
Procedure, shortened: as §1

bafetinib = compound: Cc1ccc(NC(=O)c2ccc(CN3CC[C@H](N(C)C)C3)c(C(F)(F)F)c2)cc1Nc1nccc(-c2cncnc2)n1 [bafetinib]
Procedure, shortened: as §1

[11] = compound: Cc1cccc(CC(=O)N2CCc3c2ccc(-c2cn(C)c4ncnc(N)c24)c3F)n1
Procedure, shortened: as §1

nilotinib = compound: Cc1cn(-c2cc(NC(=O)c3ccc(C)c(Nc4nccc(-c5cccnc5)n4)c3)cc(C(F)(F)F)c2)cn1 [nilotinib]
Procedure, shortened: as §1

[12] = compound: Cc1nc(Nc2n[nH]c3c2CN(C(=O)N[C@H](CN(C)C)c2ccccc2)C3(C)C)c2sccc2n1
Procedure, shortened: as §1

dasatinib = compound: Cc1nc(Nc2ncc(C(=O)Nc3c(C)cccc3Cl)s2)cc(N2CCN(CCO)CC2)n1 [dasatinib]
Procedure, shortened: as §1

[13] = compound: Cc1ncc(-c2ccnc(Nc3ccc(S(C)(=O)=O)cc3)n2)n1C(C)C
Procedure, shortened: as §1

[14] = compound: Cc1sc2c(c1C)C(c1ccc(Cl)cc1)=N[C@@H](CC(=O)OC(C)(C)C)c1nnc(C)n1-2
Procedure, shortened: as §1

[15] = compound: Cn1cc(-c2ccc3c(c2)CCN3C(=O)Cc2cccc(C(F)(F)F)c2)c2c(N)ncnc21
Procedure, shortened: as §1

[16] = compound: Cn1cc(-c2ccc3nnc(C(F)(F)c4ccc5ncccc5c4)n3n2)cn1
Procedure, shortened: as §1

tipifarnib = compound: Cn1cncc1[C@@](N)(c1ccc(Cl)cc1)c1ccc2c(c1)c(-c1cccc(Cl)c1)cc(=O)n2C [tipifarnib]
Procedure, shortened: as §1

mubritinib = compound: FC(F)(F)c1ccc(/C=C/c2nc(COc3ccc(CCCCn4ccnn4)cc3)co2)cc1 [mubritinib]
Procedure, shortened: as §1

[17] = compound: NC(=O)Nc1cc(-c2cccc(F)c2)sc1C(=O)N[C@H]1CCCNC1
Procedure, shortened: as §1

[18] = compound: NC(=O)c1cnc(N[C@@H]2CCCC[C@@H]2N)nc1Nc1cccc(-n2nccn2)c1
Procedure, shortened: as §1

[19] = compound: NC1(c2ccc(-c3nc4ccn5c(=O)[nH]nc5c4cc3-c3ccccc3)cc2)CCC1
Procedure, shortened: as §1

[20] = compound: NCC(=O)Nc1ccc(-n2nc(C(F)(F)F)cc2-c2ccc3c(ccc4ccccc43)c2)cc1
Procedure, shortened: as §1

entinostat = compound: Nc1ccccc1NC(=O)c1ccc(CNC(=O)OCc2cccnc2)cc1 [entinostat]
Procedure, shortened: as §1

vorinostat = compound: O=C(CCCCCCC(=O)Nc1ccccc1)NO [vorinostat]
Procedure, shortened: as §1

Measured: log2 fold change

STX2 (UniProt P32856)
inactive: alvocidib 0.037 | Tubastatin A -0.011 | [1] 0.054 | defactinib -0.113 | rucaparib -0.034 | [2] -0.108 | encorafenib -0.004 | [3] 0.103 | [4] -0.088 | filanesib -0.018 | zotarolimus -0.044 | idasanutlin 0.021 | alisertib -0.09 | [5] 0.214 | gefitinib 0.031 | [6] -0.07 | lapatinib -0.032 | pictilisib 0.127 | [7] -0.002 | crizotinib 0.08 | [8] 0.053 | [9] -0.045 | duvelisib 0.004 | gandotinib -0.005 | tozasertib -0.023 | [10] 0.074 | doramapimod 0.072 | ispinesib 0.248 | bafetinib -0.044 | [11] -0.041 | nilotinib -0.048 | [12] -0.174 | dasatinib -0.23 | [13] -0.041 | [14] 0.082 | [15] 0.057 | [16] -0.022 | tipifarnib 0.133 | mubritinib 0.066 | [17] 0.014 | [18] 0.012 | [19] -0.023 | [20] -0.085 | entinostat 0.032 | vorinostat -0.061
